In PubChem BioAssay AID270 (DTP/NCI, 2004) one finds T/C and survivor count data, which are given here for five compounds.

Molecules are shown by their SMILES. The list shows only some results of the screen, not a fair sample: it gathers tests that were run many times, whatever their T/C, doses with no T/C, and many T/C values between a quarter and a half above the control. Other doses and runs of a compound stand elsewhere. T/C is the treated group as % of the vehicle group. Some entries give survivors of the animals treated and no T/C: the source files T/C as zero there, which appears to mark a toxic dose or a test without result, not a measured value. Some survivor counts are full or nearly so, which does not show that the dose was tolerated: the source hardly ever lists a survival T/C far under the control, and the zero likely stands for such cases as well. Survivors were counted at the toxicity check, usually on the fifth day, unless a day is given; later deaths do not show. Schedules are NCI's codes, read here as Q, the interval in days (D) or hours (H), X, the number of doses. Where survival is the endpoint, this PubChem deposit counts one and a half times the control or more as active, and values a quarter to a half above the control carry no call in these data; other NCI protocols may use other cut-offs.

For the experiment, the system named is BDF1 mice, s.c. Lewis lung carcinoma, T/C %. Kind of experiment: NCI In Vivo Anticancer Drug Screen. Data for tumor model Lewis Lung Carcinoma (subcutaneous) in B6D2F1 (BDF1) mice. In a few lines:
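Transplanted tumors grown in mice; compound vs vehicle dosing; endpoint survival or tumor size; ratio T/C.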

With `N[C@H](C(=O)O)[C@@H]1CC(Cl)=NO1`, the T/C is 126 % of control (T/C endpoint: median survival time, dose: 1.4 mg/kg/injection, schedule: Q01DX009 (ip), vehicle: saline, higher T/C = longer survival); 143 % of control (T/C endpoint: median survival time, dose: 2.1 mg/kg/injection, schedule: Q01DX009 (ip), vehicle: saline, higher T/C = longer survival); 143 % of control (T/C endpoint: median survival time, dose: 3.2 mg/kg/injection, schedule: Q01DX009 (ip), vehicle: saline, higher T/C = longer survival); 126 % of control (T/C endpoint: median survival time, dose: 27.0 mg/kg/injection, schedule: Q04DX003 (ip), vehicle: saline, higher T/C = longer survival); 126 % of control (T/C endpoint: median survival time, dose: 40.0 mg/kg/injection, schedule: Q01DX001 (ip), vehicle: saline, higher T/C = longer survival); 131 % of control (T/C endpoint: median survival time, dose: 40.0 mg/kg/injection, schedule: Q04DX003 (ip), vehicle: saline, higher T/C = longer survival). The T/C runs as follows: (T/C endpoint: median survival time, dose: 60.0 mg/kg/injection, schedule: Q01DX001 (ip), vehicle: saline, higher T/C = longer survival) 139 % of control; (T/C endpoint: median survival time, dose: 60.0 mg/kg/injection, schedule: Q04DX003 (ip), vehicle: saline, higher T/C = longer survival) 141 % of control; (T/C endpoint: median survival time, dose: 90.0 mg/kg/injection, schedule: Q01DX001 (ip), vehicle: saline, higher T/C = longer survival) 136 % of control; (T/C endpoint: median survival time, dose: 120.0 mg/kg/injection, schedule: Q04DX002 (ip), vehicle: saline, evaluated on day 6, higher T/C = longer survival) 135 % of control; (T/C endpoint: median survival time, dose: 120.0 mg/kg/injection, schedule: Q04DX002 (ip), vehicle: saline, evaluated on day 36, higher T/C = longer survival) 131 % of control.
For the compound `CCOCCCN`, the survivor count by setting is: (T/C endpoint: mean tumor weight, dose: 148.0 mg/kg/injection, schedule: Q01DX011 (ip), vehicle: other, higher T/C = larger tumour) 0 of 6; (T/C endpoint: mean tumor weight, dose: 222.0 mg/kg/injection, schedule: Q01DX011 (ip), vehicle: other, higher T/C = larger tumour) 0 of 6; (T/C endpoint: mean tumor weight, dose: 333.0 mg/kg/injection, schedule: Q01DX011 (ip), vehicle: other, higher T/C = larger tumour) 0 of 6; (T/C endpoint: mean tumor weight, dose: 500.0 mg/kg/injection, schedule: Q01DX011 (ip), vehicle: other, higher T/C = larger tumour) 0 of 6.
Turning to `CCCCCCCCSC1=C(Cl)C(=O)C(OC)=C(OC)C1=O`, the T/C (T/C endpoint: median survival time, dose: 3.13 mg/kg/injection, schedule: Q01DX009 (ip), vehicle: other, higher T/C = longer survival) was 125 % of control. Moreover, the survivor count reads like this: (T/C endpoint: median survival time, dose: 6.25 mg/kg/injection, schedule: Q01DX009 (ip), vehicle: other, higher T/C = longer survival) 10 of 10; (T/C endpoint: median survival time, dose: 25.0 mg/kg/injection, schedule: Q01DX009 (ip), vehicle: other, higher T/C = longer survival) 10 of 10; (T/C endpoint: median survival time, dose: 37.5 mg/kg/injection, schedule: Q01DX009 (ip), vehicle: other, higher T/C = longer survival) 10 of 10.
Consider `Cn1c(=O)[nH]c2nncnc2c1=O`, for which the survivor count is, setting by setting: (T/C endpoint: median survival time, dose: 2.0 mg/kg/injection, schedule: Q01DX009 (ip), vehicle: water, higher T/C = longer survival) 10 of 10; (T/C endpoint: median survival time, dose: 4.0 mg/kg/injection, schedule: Q01DX009 (ip), vehicle: water, higher T/C = longer survival) 10 of 10; (T/C endpoint: median survival time, dose: 32.0 mg/kg/injection, schedule: Q01DX009 (ip), vehicle: water, higher T/C = longer survival) 10 of 10; (T/C endpoint: median survival time, dose: 64.0 mg/kg/injection, schedule: Q01DX009 (ip), vehicle: water, higher T/C = longer survival) 1 of 10.
With `N/C(CCSc1ccccc1N=Cc1ccccc1O)=N/O`, the survivor count (T/C endpoint: median survival time, dose: 6.25 mg/kg/injection, schedule: Q01DX009 (ip), vehicle: olive oil, sesame oil, peanut oil, higher T/C = longer survival) is 9 of 10; the survivor count (T/C endpoint: median survival time, dose: 12.5 mg/kg/injection, schedule: Q01DX009 (ip), vehicle: olive oil, sesame oil, peanut oil, higher T/C = longer survival) is listed as 10 of 10; the survivor count (T/C endpoint: median survival time, dose: 25.0 mg/kg/injection, schedule: Q01DX009 (ip), vehicle: olive oil, sesame oil, peanut oil, higher T/C = longer survival) is listed as 9 of 10; the survivor count (T/C endpoint: median survival time, dose: 50.0 mg/kg/injection, schedule: Q01DX009 (ip), vehicle: olive oil, sesame oil, peanut oil, higher T/C = longer survival) is on record as 10 of 10; the survivor count (T/C endpoint: median survival time, dose: 100.0 mg/kg/injection, schedule: Q01DX009 (ip), vehicle: olive oil, sesame oil, peanut oil, higher T/C = longer survival) is recorded as 2 of 10.
